In PubChem BioAssay AID1347423 (Functional Genomics Laboratory (NCATS/FGL), 2020):
Among all 52,000 sequences or so, about 210 (0.4%) were called active.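 How the source made its calls: active means gene whose silencing raises cell survival under the drug, median off-target-corrected z-score across its silencing RNAs 2 or more; inactive means the rest.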 This is one part of the list.

Test: Resistance to Poly (ADP-Ribose) Polymerase inhibitor: Gene Identification via Genome-wide siRNA Screen
Conditions: mouse BRCA2 R2336H ES cells, olaparib, CellTiter-Glo viability; hits give high values
In short: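 Genome-wide siRNA screen (3 siRNAs/gene, 20 nM) in mouse ES cells carrying hypomorphic BRCA2 R2336H; olaparib 500 nM added 48 h post-transfection, CellTiter-Glo viability 72 h later. Normalized to plate-median negative control; MAD z-scores, gene median, seed-adjusted.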
For “CCGUCACAAUAGUCUCUGATT against 1300007F04Rik”, the z-score was inactive: -1.88. With CGCGCAGUUUGAAAACUAUTT against 8-Sep the z-score was inactive: 0.0261. With “GGUUCCGAAUGGAGACUUGTT against 1700006H02Rik” the z-score was inactive: -1.15. With GCCAUGUUAACAUGAUGAUTT against AI595366 the z-score was inactive: -0.698. With “GGGAGCUCCUUACAGAGACTT against 1700041G16Rik” the z-score was inactive: 0.482. In the case of GCUGCUCAAUCGGAAAUACTT against Clk1, the z-score is reported as inactive: -0.495. For GGGCCAUCCUUUGGUUACATT against Dtnb, the z-score was inactive: -1.06. In the case of GCGGUUCUAAGGAUACCGATT against Txnl5, the z-score is reported as inactive: 0.645. With CGCCUCUAACUUAAUGUUUTT against Dnajc8 the z-score was inactive: -0.328. In the case of “GCCUCAGACAGACUUCUUGTT against 2400006N03Rik”, the z-score is reported as inactive: -2.29. In the case of GCCGAAGAACUAAAAGACUTT against Cyb5, the z-score is reported as inactive: -0.204. With GCGACAAAUCAAAAAGGCCTT against Dnajb9 the z-score was inactive: 0.296. In the case of GGAACACAAUGGAGACACATT against Prdm15, the z-score is reported as inactive: 2.01. With GGAACAGUCGUGGUAAAGUTT against BC003262 the z-score was inactive: -3.45. For GGCAGAGAAAACAAGAUUATT against Arc, the z-score was inactive: 0.321. With “GGACAGCCACCCAUCUGAATT against 1210002B07Rik” the z-score was inactive: -0.719. With GGCUGACAGUAACAAGUGGTT against Fignl1 the z-score was inactive: -2.11. For GGCGAACACCAUGAAAAGGTT against Lin7b, the z-score was inactive: -1.39. In the case of GGUUAUGGUUUUGUUGACUTT against Rbms1, the z-score is reported as inactive: 0.699. With CGAGUAAAAGAGAUCUACATT against Eya1 the z-score was inactive: 0.0596. For GGCAAUACAAACAAGUUCUTT against Klhdc2, the z-score was inactive: 0.488. In the case of “GCCGUUGGUCGUGUUCGUUTT against 0610011D08Rik”, the z-score is reported as inactive: -0.774. For GGAGGAAAGACGAAUCAACTT against Clcn7, the z-score was inactive: -0.795. With “GGCAAAAAGAAGCUGAUGATT against 2900036G02Rik” the z-score was inactive: 0.939. In the case of CCCUUACAUCACACAGGACTT against BC005764, the z-score is reported as inactive: 2.21. With GGAGUUCCUCAAGAAUUUUTT against Arpc4 the z-score was inactive: 0.81. With AACCGAACUGAUAAGAACUTT against Bag5 the z-score was inactive: -0.155. With GCUUUAAGUCGUAAUCUAGTT against Ank the z-score was inactive: 1.47. For GGCUUUCUUUGUCUUCUCCTT against Adcy3, the z-score was inactive: -0.754. For GGUGCUAAAGGAGCUUCUGTT against Commd4, the z-score was inactive: -1.84. For “CCCAGAAUAGAGGAGAACATT against 4933427D14Rik”, the z-score was inactive: 0.0843. With “CCCUAACUGUAUGGACCAUTT against D11Ertd99e” the z-score was inactive: 1.51. With GGGAAAGCAUCGUAGACUCTT against Cri2 the z-score was inactive: 1.05. In the case of GCUAUUUCUGCCUUUAGUCTT against Scamp5, the z-score is reported as inactive: 0.591. For GACCUUGGUUAUUCUACAGTT against Olfr1087, the z-score was inactive: -1.8. In the case of GCAUGCAGCCUAUGGAUGCTT against LOC545558, the z-score is reported as inactive: 0.166. In the case of GGGAGUUGUAGUAUUAGUATT against Zfp94, the z-score is reported as inactive: 0.571. With CCCGCUUUUUUUUCUGGACTT against Ndufa8 the z-score was inactive: 0.546. In the case of CGGCGAUGAGAUUUUCCAUTT against H2-Ea, the z-score is reported as inactive: -0.152. For CGAUGGUGGUUCUUAUUUUTT against Otx1, the z-score was inactive: 0.97. In the case of CGACUAAGGAUGAAAAGCATT against Apbb1ip, the z-score is reported as inactive: -1.57. In the case of GGUCAUCAGUGAUCAGUCATT against Mre11a, the z-score is reported as inactive: -0.33. For “GGAUGUACUAGCUGAGAUUTT against A730016F12Rik”, the z-score was inactive: 0.513. In the case of GGGACUGUACAACCACUCUTT against En1, the z-score is reported as inactive: -1.01. With GGUUGUGCAACACAGCUCUTT against Olfr218 the z-score was inactive: -0.161. For “GGAAGUGCUAUUAAUUGUUTT against 4631402N15Rik”, the z-score was inactive: 0.234. In the case of GGACCUGAAUUCCACUCCUTT against Socs1, the z-score is reported as inactive: 0.722. With GGUUAUUUCUCUCUCCCUATT against Creld1 the z-score was inactive: -0.155. In the case of GGCAAUGGGAAAAUCGUGUTT against Gp5, the z-score is reported as inactive: 0.546. In the case of CCGAAUGGAAUACCAAAUUTT against Cst8, the z-score is reported as inactive: -0.186. With “GGAGGUAAUUACAUAAUGGTT against 9930022D16Rik” the z-score was inactive: 0.704. In the case of “GGGAAGGACUGUAAGAAAATT against 2900024C23Rik”, the z-score is reported as inactive: 0.862. In the case of GGGUUUUUGUUAGAUGUUATT against Rab3b, the z-score is reported as inactive: 0.437. In the case of GCCCUAGGAGGAACUGAGUTT against Olfr458, the z-score is reported as inactive: -2.63. For GGUGGCAAAGUGGUGAUCCTT against Fabp7, the z-score was inactive: 0.724. For GCUUUGGUUGCUAACCCAATT against Matp, the z-score was inactive: 1.39. In the case of CCACUGACAUUCCUAUUAUTT against Capn6, the z-score is reported as inactive: -1.21. In the case of “CCUCACUAAGUGAGCCUUCTT against 4930543L23Rik”, the z-score is reported as inactive: -0.841. In the case of GGUGAAAAAAACAGGAUCCTT against Wnt11, the z-score is reported as inactive: 1.06. For GGAUCUUCGUACUAGAGGCTT against Stra13, the z-score was inactive: 0.118. For GGAAAAGGUGUCUUCCGUGTT against Crybb2, the z-score was inactive: 0.609. In the case of GGCCUAAAUGUGGAUUUUGTT against Phf6, the z-score is reported as inactive: 0.853. For CCAUAUCUUUAGCUCCACATT against Gm191, the z-score was inactive: 0.199. In the case of “GGAAGCUGUUUGAACUCGCTT against C330016O16Rik”, the z-score is reported as inactive: 1.16.
